# From the supplement of paper PMC11732987, “Enantioselective OTUD7B fragment discovery through chemoproteomics screening and high-throughput optimisation” (Communications Chemistry, 2025)
# Protein sequences, listed by entry. Tags and fused reporters are not part of them. Lines headed by an entry give the natural chain unless they say otherwise; changes in a name come on top. Residues count along the entry.
# UniProt O43379: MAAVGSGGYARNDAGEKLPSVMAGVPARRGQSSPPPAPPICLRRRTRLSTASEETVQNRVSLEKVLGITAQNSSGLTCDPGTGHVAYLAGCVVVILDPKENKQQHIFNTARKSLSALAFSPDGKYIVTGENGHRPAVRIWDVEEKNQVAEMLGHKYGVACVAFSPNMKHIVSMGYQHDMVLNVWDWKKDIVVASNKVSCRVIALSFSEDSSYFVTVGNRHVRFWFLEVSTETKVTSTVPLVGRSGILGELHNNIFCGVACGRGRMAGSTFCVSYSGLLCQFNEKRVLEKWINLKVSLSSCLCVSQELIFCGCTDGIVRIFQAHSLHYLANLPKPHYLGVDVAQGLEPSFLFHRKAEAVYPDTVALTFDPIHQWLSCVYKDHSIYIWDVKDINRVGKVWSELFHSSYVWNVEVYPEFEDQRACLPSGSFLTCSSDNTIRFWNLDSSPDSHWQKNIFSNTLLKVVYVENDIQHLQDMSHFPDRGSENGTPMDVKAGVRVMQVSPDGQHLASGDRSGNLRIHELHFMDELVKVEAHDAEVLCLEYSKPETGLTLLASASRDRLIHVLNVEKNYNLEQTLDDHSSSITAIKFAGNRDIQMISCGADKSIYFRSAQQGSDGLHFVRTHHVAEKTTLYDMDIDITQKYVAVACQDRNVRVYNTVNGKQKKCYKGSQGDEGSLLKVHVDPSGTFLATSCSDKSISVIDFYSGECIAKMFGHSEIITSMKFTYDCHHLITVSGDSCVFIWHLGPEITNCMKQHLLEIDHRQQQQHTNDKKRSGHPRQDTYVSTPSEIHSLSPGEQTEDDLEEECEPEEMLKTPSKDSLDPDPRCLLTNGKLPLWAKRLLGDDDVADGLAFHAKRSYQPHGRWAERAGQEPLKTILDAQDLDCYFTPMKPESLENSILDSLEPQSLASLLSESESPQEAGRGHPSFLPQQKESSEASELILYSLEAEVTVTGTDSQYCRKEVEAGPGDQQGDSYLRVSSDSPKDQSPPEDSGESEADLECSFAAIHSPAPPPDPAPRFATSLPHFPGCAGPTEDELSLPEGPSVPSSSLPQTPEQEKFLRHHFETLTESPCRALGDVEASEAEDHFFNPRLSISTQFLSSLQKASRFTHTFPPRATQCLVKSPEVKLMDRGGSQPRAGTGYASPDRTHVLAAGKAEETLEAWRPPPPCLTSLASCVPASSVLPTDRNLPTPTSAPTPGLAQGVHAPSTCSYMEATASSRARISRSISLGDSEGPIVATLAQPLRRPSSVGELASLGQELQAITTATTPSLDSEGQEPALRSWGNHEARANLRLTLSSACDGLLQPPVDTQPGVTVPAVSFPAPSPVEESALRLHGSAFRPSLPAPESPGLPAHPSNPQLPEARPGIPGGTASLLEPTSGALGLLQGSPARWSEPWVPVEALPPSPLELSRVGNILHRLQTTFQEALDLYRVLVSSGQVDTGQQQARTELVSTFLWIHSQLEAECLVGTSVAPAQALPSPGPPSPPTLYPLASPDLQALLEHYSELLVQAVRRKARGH
# UniProt Q9BW85: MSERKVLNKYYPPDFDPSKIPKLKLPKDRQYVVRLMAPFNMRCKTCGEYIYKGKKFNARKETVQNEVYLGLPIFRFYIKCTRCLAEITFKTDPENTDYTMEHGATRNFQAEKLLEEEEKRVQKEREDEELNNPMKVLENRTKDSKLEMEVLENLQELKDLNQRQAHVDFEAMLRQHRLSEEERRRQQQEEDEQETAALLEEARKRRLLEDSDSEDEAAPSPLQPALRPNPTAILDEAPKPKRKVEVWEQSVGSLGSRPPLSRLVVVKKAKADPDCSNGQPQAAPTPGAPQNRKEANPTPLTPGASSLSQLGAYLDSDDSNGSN
# UniProt Q8N1B4, 101-125: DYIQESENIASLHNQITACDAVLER
# UniProt Q9H4A3, 531-552: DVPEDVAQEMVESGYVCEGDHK
# UniProt Q96JC1, 218-238: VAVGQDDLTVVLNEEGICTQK
# UniProt P10074, 263-284: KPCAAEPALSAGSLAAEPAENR
# UniProt O75083, 490-511: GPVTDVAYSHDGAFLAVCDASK
# UniProt Q9Y5A9: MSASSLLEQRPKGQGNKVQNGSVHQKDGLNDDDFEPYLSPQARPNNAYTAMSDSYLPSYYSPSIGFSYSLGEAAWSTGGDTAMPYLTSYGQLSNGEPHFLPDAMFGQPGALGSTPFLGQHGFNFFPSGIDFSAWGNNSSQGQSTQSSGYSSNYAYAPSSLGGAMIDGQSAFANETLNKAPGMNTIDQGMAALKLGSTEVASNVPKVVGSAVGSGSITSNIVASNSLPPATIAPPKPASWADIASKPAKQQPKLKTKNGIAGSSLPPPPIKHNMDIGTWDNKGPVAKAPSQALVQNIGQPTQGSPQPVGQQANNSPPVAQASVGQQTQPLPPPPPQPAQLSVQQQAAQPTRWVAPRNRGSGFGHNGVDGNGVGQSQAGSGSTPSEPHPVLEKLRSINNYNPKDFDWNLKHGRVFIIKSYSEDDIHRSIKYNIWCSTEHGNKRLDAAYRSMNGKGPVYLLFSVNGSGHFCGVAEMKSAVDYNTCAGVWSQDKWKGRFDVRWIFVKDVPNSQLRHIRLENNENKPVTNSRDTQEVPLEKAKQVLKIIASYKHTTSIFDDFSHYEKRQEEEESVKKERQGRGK
# UniProt A8MPS7: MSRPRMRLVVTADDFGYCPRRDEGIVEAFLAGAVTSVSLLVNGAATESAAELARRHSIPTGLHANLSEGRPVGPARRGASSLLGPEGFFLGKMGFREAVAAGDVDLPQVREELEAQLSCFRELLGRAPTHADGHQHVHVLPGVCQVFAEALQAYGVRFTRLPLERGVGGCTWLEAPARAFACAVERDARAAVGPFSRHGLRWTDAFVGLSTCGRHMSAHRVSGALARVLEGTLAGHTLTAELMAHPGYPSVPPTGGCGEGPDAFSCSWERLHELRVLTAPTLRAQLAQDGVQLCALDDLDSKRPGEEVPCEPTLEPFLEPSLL
# UniProt Q7Z5K2, 951-970: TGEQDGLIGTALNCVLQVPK
# UniProt Q12768: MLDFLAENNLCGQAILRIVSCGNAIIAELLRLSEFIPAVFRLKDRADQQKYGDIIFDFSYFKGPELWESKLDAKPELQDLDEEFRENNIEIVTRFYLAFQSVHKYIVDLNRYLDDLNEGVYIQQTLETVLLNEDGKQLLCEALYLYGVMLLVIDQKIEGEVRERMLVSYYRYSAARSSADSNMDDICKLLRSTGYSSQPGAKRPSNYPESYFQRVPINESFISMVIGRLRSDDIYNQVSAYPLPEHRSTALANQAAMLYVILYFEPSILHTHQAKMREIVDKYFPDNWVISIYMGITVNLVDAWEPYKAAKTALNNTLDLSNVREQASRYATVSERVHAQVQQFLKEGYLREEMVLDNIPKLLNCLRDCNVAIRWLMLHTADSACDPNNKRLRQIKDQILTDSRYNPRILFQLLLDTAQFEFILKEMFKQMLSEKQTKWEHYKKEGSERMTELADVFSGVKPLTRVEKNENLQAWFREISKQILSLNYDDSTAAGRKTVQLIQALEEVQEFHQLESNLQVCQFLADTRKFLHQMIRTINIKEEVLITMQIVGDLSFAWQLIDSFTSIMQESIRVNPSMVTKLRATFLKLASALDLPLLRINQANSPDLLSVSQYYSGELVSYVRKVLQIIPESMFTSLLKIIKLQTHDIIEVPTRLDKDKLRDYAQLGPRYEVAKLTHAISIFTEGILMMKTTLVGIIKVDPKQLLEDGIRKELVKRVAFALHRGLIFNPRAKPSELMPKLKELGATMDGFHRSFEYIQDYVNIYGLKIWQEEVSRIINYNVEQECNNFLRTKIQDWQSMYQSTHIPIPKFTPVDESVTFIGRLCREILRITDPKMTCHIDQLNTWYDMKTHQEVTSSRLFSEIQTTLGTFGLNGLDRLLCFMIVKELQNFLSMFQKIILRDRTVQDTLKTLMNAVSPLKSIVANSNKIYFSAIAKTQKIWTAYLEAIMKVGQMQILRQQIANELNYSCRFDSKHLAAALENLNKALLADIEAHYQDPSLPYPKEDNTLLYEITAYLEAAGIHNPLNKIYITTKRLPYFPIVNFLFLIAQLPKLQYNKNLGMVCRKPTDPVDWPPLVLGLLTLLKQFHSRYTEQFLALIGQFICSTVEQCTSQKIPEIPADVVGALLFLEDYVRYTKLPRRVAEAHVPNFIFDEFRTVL
# UniProt Q9Y2K1: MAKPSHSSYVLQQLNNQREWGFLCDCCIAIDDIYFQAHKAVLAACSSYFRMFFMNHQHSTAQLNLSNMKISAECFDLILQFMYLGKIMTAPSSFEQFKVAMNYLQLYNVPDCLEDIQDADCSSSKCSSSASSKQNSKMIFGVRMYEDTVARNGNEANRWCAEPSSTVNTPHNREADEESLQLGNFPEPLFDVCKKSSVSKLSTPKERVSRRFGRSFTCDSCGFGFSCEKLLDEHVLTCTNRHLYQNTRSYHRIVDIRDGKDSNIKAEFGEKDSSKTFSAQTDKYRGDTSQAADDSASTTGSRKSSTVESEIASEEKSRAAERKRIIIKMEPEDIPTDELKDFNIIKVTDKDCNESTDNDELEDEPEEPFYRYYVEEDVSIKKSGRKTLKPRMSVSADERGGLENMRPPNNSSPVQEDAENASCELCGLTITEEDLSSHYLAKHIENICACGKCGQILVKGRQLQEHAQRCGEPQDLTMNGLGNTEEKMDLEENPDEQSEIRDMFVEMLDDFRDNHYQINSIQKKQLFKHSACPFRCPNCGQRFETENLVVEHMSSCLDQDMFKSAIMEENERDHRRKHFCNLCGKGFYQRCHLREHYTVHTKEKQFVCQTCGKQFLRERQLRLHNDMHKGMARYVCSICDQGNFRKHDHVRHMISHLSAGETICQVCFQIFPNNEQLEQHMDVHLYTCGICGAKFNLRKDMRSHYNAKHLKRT
# UniProt O75717: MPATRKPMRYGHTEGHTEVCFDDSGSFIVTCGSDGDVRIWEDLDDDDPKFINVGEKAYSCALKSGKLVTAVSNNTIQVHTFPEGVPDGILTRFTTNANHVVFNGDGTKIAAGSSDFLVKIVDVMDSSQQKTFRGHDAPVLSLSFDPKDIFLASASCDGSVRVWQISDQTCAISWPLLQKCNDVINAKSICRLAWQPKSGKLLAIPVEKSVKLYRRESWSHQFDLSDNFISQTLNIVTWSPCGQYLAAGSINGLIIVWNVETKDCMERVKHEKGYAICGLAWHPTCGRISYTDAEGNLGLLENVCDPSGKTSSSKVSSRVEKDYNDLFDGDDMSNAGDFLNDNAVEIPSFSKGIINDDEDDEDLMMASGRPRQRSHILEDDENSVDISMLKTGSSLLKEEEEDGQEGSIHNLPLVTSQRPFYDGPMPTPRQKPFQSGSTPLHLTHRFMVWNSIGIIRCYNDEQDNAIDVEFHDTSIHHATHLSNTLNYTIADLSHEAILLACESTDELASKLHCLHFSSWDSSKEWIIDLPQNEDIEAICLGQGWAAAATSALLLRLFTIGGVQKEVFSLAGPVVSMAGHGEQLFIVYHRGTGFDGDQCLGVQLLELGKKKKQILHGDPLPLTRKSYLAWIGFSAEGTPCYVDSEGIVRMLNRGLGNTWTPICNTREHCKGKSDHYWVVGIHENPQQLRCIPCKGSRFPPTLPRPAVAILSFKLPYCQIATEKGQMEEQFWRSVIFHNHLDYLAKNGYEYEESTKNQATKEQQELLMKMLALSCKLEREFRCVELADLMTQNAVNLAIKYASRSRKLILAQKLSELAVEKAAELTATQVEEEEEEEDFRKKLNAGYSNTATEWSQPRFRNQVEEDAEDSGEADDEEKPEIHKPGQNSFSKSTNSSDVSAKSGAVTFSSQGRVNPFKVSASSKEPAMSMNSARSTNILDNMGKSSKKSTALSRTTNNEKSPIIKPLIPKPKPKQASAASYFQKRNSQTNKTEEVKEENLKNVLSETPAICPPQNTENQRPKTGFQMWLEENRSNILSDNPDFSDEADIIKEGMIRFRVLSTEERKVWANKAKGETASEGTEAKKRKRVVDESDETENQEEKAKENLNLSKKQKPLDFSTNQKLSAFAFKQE
# UniProt P30291: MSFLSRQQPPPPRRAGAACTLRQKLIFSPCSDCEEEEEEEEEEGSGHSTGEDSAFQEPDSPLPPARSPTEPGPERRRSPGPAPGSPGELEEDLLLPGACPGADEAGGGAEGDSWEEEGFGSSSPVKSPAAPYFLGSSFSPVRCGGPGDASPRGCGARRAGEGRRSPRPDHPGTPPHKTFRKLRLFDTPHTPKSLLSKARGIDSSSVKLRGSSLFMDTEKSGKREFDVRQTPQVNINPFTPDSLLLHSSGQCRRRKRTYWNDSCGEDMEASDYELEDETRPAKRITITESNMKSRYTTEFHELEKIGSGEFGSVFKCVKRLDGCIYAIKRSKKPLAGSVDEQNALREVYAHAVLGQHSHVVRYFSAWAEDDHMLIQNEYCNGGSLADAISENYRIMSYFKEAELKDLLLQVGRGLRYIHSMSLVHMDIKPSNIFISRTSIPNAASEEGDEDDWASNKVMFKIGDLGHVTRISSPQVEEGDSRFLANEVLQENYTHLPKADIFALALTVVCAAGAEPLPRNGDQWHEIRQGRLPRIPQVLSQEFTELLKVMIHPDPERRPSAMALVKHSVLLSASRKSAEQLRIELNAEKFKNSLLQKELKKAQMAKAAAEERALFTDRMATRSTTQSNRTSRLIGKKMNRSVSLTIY
# Some of the results follow. The data scatter; read single values as rough.
# Key:
# [1] = compound: ClCC(=O)N[C@@H]1CCCc2ccccc12; experiment: log2 mean competition ratio of IA-DTB cysteine labelling (DMSO/compound) (log2 ratio); higher = stronger cysteine engagement by compound; details: treatment time: 4 h, cell line lysate: HEK293T
# Method: (§1)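 IA-DTB competitive cysteine chemoproteomics in HEK293T RIPA lysate. Lysates were treated with compound 29 or 30 at 50 or 200 µM for 4 h, then IA-DTB (500 µM, 1 h), trypsin-digested, NeutrAvidin-enriched and analysed by diaPASEF. Competition ratio = intensity DMSO / intensity compound (n=4 treated, n=64 DMSO); binding: mean log2 CR ≥ 1 and p ≤ 0.05 plus QC filters. Target is the cysteine site.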
# [2] = compound: ClCC(=O)N[C@H]1CCCc2ccccc12; experiment: as above; details: treatment time: 4 h, cell line lysate: HEK293T
# Method: as §1
Target,log2 mean competition ratio ([1]; 50 µM),log2 mean competition ratio ([1]; 200 µM),log2 mean competition ratio ([2]; 50 µM),log2 mean competition ratio ([2]; 200 µM)
WDR76 C81 (UniProt Q9H967),-0.0313,0.0385,0.0181,0.139
XRCC3 C221 (UniProt O43542),,,-0.023,-0.0332
ZBTB18 C13 (UniProt Q99592),,,-0.0516,0.0081
YWHAQ C134 (UniProt P27348),-0.163,-0.173,-0.0909,-0.0411
WDR59 C888 (UniProt Q6PJI9),,,-0.0386,-0.158
WDR62 C41 (UniProt O43379),0.0792,-0.185,0.306,-0.225
XPO5 C1044 (UniProt Q9HAV4),,,0.261,0.193
ZBTB40 C282 (UniProt Q9NUA8),,-0.0689,0.00703,-0.434
ZC3H14 C261 (UniProt Q6PJT7),,0.121,0.858,-0.066
YJU2 C46 (UniProt Q9BW85),-0.118,-0.198,0.0558,-0.00287
WRN C1367 (UniProt Q14191),,,-0.02,-0.0156
WDR41 C131 (UniProt Q9HAD4),0.243,-0.331,0.0876,-0.255
VPS51 C485 (UniProt Q9UID3),,,0.0747,-0.0178
VPS35L C253 (UniProt Q7Z3J2),,,-0.327,-0.0323
XRCC1 C615,-0.0733,-0.187,0.0154,-0.111
VWA8 C444 (UniProt A3KMH1),0.0035,0.0508,-0.306,0.109
VPS52 C119 (UniProt Q8N1B4),,,-0.173,-0.187
WWOX C382 (UniProt Q9NZC7),,,-0.0975,0.0648
VWA8 C724 (UniProt A3KMH1),,,0.0899,-0.113
WWC2 C1061 (UniProt Q6AWC2),0.0431,0.246,-0.0861,0.336
WNK1 C547 (UniProt Q9H4A3),,,-0.00112,-0.13
WDR4 C412 (UniProt P57081),,,0.174,0.216
VPS4A C60 (UniProt Q9UN37),,,0.419,0.0967

Target,log2 mean competition ratio ([1]; 50 µM),log2 mean competition ratio ([1]; 200 µM),log2 mean competition ratio ([2]; 50 µM),log2 mean competition ratio ([2]; 200 µM)
WIPI2 C334 (UniProt Q9Y4P8),,,-0.108,-0.411
XPR1 C62 (UniProt Q9UBH6),,,-0.165,-0.225
WDR18 C384 (UniProt Q9BV38),0.0211,-0.222,-0.158,-0.233
XPO6 C22 (UniProt Q96QU8),,,-0.159,-0.106
VPS39 C235 (UniProt Q96JC1),,,-0.303,0.136
WDR62 C647 (UniProt O43379),,,0.156,-0.0431
XPO1 C528 (UniProt O14980),,,-0.0186,-0.218
WDR33 C220 (UniProt Q9C0J8),,-0.0935,-0.185,-0.00463
WDR37 C417 (UniProt Q9Y2I8),,,0.0621,-0.14
ZBTB48 C265 (UniProt P10074),,,-0.12,0.177
ZC3H3 C338 (UniProt Q8IXZ2),,,-0.0988,-0.0355
WDR37 C8 (UniProt Q9Y2I8),,,0.206,-0.211
XPO5 C605 (UniProt Q9HAV4),,,0.219,-0.22
ZADH2 C55 (UniProt Q8N4Q0),,,0.699,0.172
WNK3 C385 (UniProt Q9BYP7),,,0.355,-0.199
XPO7 C525,,,0.592,-0.249
WDR1 C507 (UniProt O75083),,,-0.424,0.108
YTHDF2 C482 (UniProt Q9Y5A9),,,0.204,-0.0534
YTHDF3;YTHDF1 C439;(C412),,,-0.496,-0.035
YDJC C294 (UniProt A8MPS7),,,-0.158,-0.296
WAPL C1190 (UniProt Q7Z5K2),,,-0.243,0.0407
ZC3H11A C209 (UniProt O75152),,,0.143,0.379
WWC3 C158,,,-0.068,0.0642

# At a glance, part of the list above:
Target,log2 mean competition ratio ([1]; 50 µM),log2 mean competition ratio ([1]; 200 µM),log2 mean competition ratio ([2]; 50 µM),log2 mean competition ratio ([2]; 200 µM)
XPO7 C525,,,0.592,-0.249
WDR1 C507 (UniProt O75083),,,-0.424,0.108
YTHDF2 C482 (UniProt Q9Y5A9),,,0.204,-0.0534
YTHDF3;YTHDF1 C439;(C412),,,-0.496,-0.035

# Further results follow:

Target,log2 mean competition ratio ([1]; 50 µM),log2 mean competition ratio ([1]; 200 µM),log2 mean competition ratio ([2]; 50 µM),log2 mean competition ratio ([2]; 200 µM)
ZBED4 C156 (UniProt O75132),,,0.279,0.266
WDR75 C490 (UniProt Q8IWA0),,,-0.157,-0.054
VPS39 C844 (UniProt Q96JC1),,,0.0844,-0.197
ZBTB11 C262 (UniProt O95625),,,-0.089,-0.00655
WIZ C1279 (UniProt O95785),,,0.435,-0.144
WASHC5 C1064 (UniProt Q12768),,,0.104,0.0537
XPO1 C164 (UniProt O14980),,,0.141,0.111
ZBTB1 C160 (UniProt Q9Y2K1),,,-0.149,0.0728
ZBTB5 C312 (UniProt O15062),,,-0.255,-0.0311
WDR74 C134 (UniProt Q6RFH5),,,-0.463,-0.237
ZBTB18 C216 (UniProt Q99592),,,0.179,-0.226
WAPL C964 (UniProt Q7Z5K2),,,-0.37,-0.0953
WAPL C776 (UniProt Q7Z5K2),,,-0.225,-0.14
WDR46 C515,,,-0.723,0.0353
VTA1 C38 (UniProt Q9NP79),,,-0.15,0.144
WDR83 C23 (UniProt Q9BRX9),,,-0.0621,0.039
WDFY3 C896 (UniProt Q8IZQ1),,,-0.347,-0.00622
WDHD1 C773 (UniProt O75717),,,0.993,0.298
WEE1 C143 (UniProt P30291),,,-0.00782,0.17
ZC3H12A C103 (UniProt Q5D1E8),,,-0.152,-0.364
WDR36 C463 (UniProt Q8NI36),,,-0.667,-0.083
WDFY3 C1436 (UniProt Q8IZQ1),,,0.266,-0.282
WDR6 C1107 (UniProt Q9NNW5),,,0.234,-0.0649
